Measurements reported in PubChem BioAssay (NCATS).
This list was built around the results that the source calls inconclusive (neither active nor inactive); the mix of calls is not that of the screen. For some of these results: Where the call is inconclusive, the potency comes from a doubtful curve fit. Active and inactive are the calls of the source. Calls follow the shape of the dose curve; as a rule, active = well fitted curve in the direction sought with a large enough effect; inconclusive = small, poorly fitted or top-dose-only effect, or another doubt; inactive = no such curve, though single readings can be large; an effect the other way counts as inactive or inconclusive.

Assays:
[1] = qHTS of pediatric cancer cell lines to identify multiple opportunities for drug repurposing: Primary screen for Rh41 cells (AID 1347108); conditions: Rh41 rhabdomyosarcoma viability, CellTiter-Glo luminescence, 48 h; series mostly up to 46 µM; also: nearly all actives have a fitted effect of over 70% in size
Procedure, shortened: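 ATP-based luminescence (CellTiter-Glo) quantifies viability after a 48-hour exposure. Compounds are dosed across 8 or 11 final concentrations; DMSO and 2.3 µM bortezomib serve as controls.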

[2] = qHTS of pediatric cancer cell lines to identify multiple opportunities for drug repurposing: Confirmatory screen for SK-N-MC cells (AID 1347111); conditions: SK-N-MC cell viability; series mostly up to 45.9 µM;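 also: cells exposed to compound for 48 h before the readout; nearly all actives have a fitted effect of over 70% in size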
Procedure, shortened: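 Seed 500-1,000 cells/well; rest 5 h at 37 degrees C. Pin-transfer compounds, 11-point titration. Incubate 48 h. Add CellTiter-Glo, 15 min RT, read luminescence.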

[3] = qHTS of pediatric cancer cell lines to identify multiple opportunities for drug repurposing: Confirmatory screen for BT-12 cells (AID 1347112); conditions: BT-12 rhabdoid tumor cells, viability; series mostly up to 45.9 µM;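 also: viability read after 48 h of compound exposure; nearly all actives have a fitted effect of over 55% in size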
Procedure, shortened: (§1)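 Cells (500-1,000/well) rested 5 h, then received compounds for 48 h; metabolically active cells were measured by CellTiter-Glo luminescence. Final concentrations spanned up to 46 µM (MIPE, 11-point) or 0.59 nM-46 µM (NPC, 8-point) in primary screens, 11-point in follow-ups.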

[4] = qHTS of pediatric cancer cell lines to identify multiple opportunities for drug repurposing: Confirmatory screen for DAOY cells (AID 1347114); conditions: DAOY medulloblastoma cells viability, cytotoxicity qHTS; series mostly up to 45.9 µM; also: nearly all actives have a fitted effect of over 65% in size
Procedure, shortened: (§2)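 Viability measured as metabolically active cells via CellTiter-Glo luminescence following 48 hours of compound exposure, 11-point dilutions in confirmatory testing. 500-1,000 cells/well plated 5 hours before dosing; controls were DMSO and 2.3 µM bortezomib.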

[5] = qHTS of pediatric cancer cell lines to identify multiple opportunities for drug repurposing: Confirmatory screen for NB-EBc1 cells (AID 1347115); conditions: NB-EBc1 neuroblastoma cells, viability (cytotoxicity); series mostly up to 45.9 µM;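 also: cells exposed to compound for 48 h before the viability read; nearly all actives have a fitted effect of over 45% in size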
Procedure, shortened: as §1

[6] = qHTS of pediatric cancer cell lines to identify multiple opportunities for drug repurposing: Confirmatory screen for SJ-GBM2 cells (AID 1347116); conditions: SJ-GBM2 glioblastoma cells, viability; series mostly up to 45.9 µM; also: nearly all actives have a fitted effect of over 60% in size
Procedure, shortened: as §2

[7] = qHTS of pediatric cancer cell lines to identify multiple opportunities for drug repurposing: Confirmatory screen for NB1643 cells (AID 1347109); conditions: NB1643 neuroblastoma cell viability; series mostly up to 45.9 µM; also: nearly all actives have a fitted effect of over 45% in size
Procedure, shortened: as §1

[8] = qHTS of pediatric cancer cell lines to identify multiple opportunities for drug repurposing: Confirmatory screen for A673 cells (AID 1347110); conditions: A673 Ewing sarcoma cell viability; series mostly up to 45.9 µM;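 also: cells exposed to compound for 48 h before the viability read; nearly all actives have a fitted effect of over 65% in size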
Procedure, shortened: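 Forty-eight-hour viability assay. Follow-up compounds ran at 11-point dilutions; positive control bortezomib at 2.3 uM final, neutral control DMSO.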

[9] = qHTS of pediatric cancer cell lines to identify multiple opportunities for drug repurposing: Confirmatory screen for LAN-5 cells (AID 1347113); conditions: LAN-5 neuroblastoma cell viability; series mostly up to 45.9 µM; also: nearly all actives have a fitted effect of over 65% in size
Procedure, shortened: as §1
Potency is read from the fitted curve at half-maximal effect.

| Structure (SMILES) | Potency [1] | Potency [2] | Potency [3] | Potency [4] | Potency [5] | Potency [6] | Potency [7] | Potency [8] | Potency [9] |
| --- | --- | --- | --- | --- | --- | --- | --- | --- | --- |
| CCC[C@H](Nc1nc(-c2ccc(NC(=O)NCC)c(OC)c2)ncc1C)c1cccnc1 | inconclusive: 10.5 nM [cytotoxic, full curve] | inconclusive: 104 nM [cytotoxic, full curve, poor fit] | inconclusive: 329 nM [cytotoxic, full curve] | active: 82.7 nM | active: 329 nM | inconclusive: 293 nM [cytotoxic, full curve, poor fit] | – | – | – |
| O=C(NCC1CN(c2ccc(N3CCOCC3=O)cc2)C(=O)O1)c1ccc(Cl)s1 (configuration not stated) | inactive | – | inconclusive: 29300 nM [cytotoxic, single point] | – | inactive | – | inconclusive: 36900 nM [cytotoxic, single point] | inconclusive: 36900 nM [cytotoxic, single point] | inconclusive: 36900 nM [cytotoxic, single point] |
| CCC(C=C[C@@H]1OC(=O)C=C[C@H]1C)=C[C@H](C)CC=CC(C)=C[C@@H](C)C(=O)[C@@H](C)[C@H](O)[C@@H](C)CC(C)=CC(=O)O | active: 24.7 nM | – | – | active: 12.8 nM | – | inconclusive: 18.1 nM [cytotoxic, full curve] | inconclusive: 7.2 nM [cytotoxic, full curve] | – | – |
| Cc1nc2cnc3ccc(C#Cc4cccnc4)cc3c2n1-c1ccc(C(C)(C)C#N)cc1 | active: 83.3 nM | active: 1700 nM | inconclusive: 2140 nM [cytotoxic, full curve] | active: 13500 nM | inconclusive: 1910 nM [cytotoxic, full curve] | – | active: 12000 nM | – | – |
